Results are given in words; binding and its absence hold for the method and conditions named. In cells and extracts the contact can be indirect. Some results given as binding are weak or reduced against the parent protein; the word gives no strength.
Tests used:
[1] = target: FLAG-tagged β-transducin repeat-containing protein (β-TrCP) (UniProt Q9Y297); experiment: co-IP; FLAG-β-TrCP captured on anti-FLAG M2 magnetic beads from lysates of HEK293T cells co-transfected with NSP1 vectors (24 h p.t.); lysis in 150 mM NaCl, 50 mM Tris-HCl pH 7.4, 1% Triton X-100; overnight at 4°C; elution with 0.1 M glycine pH 3.0; immunoblot; in Fig. 7A cells mock treated or treated with MLN4924
[2] = target: OSU NSP1 C42A (mutation of a conserved cysteine residue in the N-terminal RING domain) (porcine rotavirus strain OSU) (UniProt Q84940); experiment: as above

By UniProt entry, the sequences of proteins in these tests, tags left out.
UniProt Q9Y297: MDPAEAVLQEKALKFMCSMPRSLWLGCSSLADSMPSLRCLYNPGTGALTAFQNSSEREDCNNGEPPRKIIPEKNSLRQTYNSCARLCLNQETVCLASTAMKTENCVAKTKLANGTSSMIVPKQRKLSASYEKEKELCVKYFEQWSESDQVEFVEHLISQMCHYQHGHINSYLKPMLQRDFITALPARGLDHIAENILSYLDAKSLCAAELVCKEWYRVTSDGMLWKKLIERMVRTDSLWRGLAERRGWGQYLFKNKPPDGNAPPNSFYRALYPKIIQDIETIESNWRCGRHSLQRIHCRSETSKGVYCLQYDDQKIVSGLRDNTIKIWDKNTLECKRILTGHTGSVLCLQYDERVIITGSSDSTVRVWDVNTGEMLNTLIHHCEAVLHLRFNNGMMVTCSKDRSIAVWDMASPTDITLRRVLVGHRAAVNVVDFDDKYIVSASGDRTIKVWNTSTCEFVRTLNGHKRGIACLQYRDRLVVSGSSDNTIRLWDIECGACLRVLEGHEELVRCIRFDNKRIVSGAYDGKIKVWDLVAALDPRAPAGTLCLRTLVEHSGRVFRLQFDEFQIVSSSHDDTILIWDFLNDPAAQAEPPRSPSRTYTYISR
UniProt P68400: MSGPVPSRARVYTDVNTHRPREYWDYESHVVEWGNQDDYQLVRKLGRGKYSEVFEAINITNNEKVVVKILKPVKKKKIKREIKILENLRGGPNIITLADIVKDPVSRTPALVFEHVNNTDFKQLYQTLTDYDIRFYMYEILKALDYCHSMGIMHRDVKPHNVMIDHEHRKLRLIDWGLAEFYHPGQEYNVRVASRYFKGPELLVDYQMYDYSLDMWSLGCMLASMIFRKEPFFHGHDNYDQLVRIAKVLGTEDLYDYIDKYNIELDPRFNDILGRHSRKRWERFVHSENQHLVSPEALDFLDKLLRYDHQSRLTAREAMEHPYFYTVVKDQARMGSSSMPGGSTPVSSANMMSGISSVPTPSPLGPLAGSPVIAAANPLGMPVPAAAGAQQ

| Substance | binding [1] | binding [2] |
| --- | --- | --- |
| OSU NSP1 E486Q (lacks the CKII priming residue; phosphorylation-defective ILD) (from UniProt Q84940 1-486) | no binding |  |
| OSU NSP1 C42A (mutation of a conserved cysteine residue in the N-terminal RING domain) (from UniProt Q84940 1-486) | binds |  |
| casein kinase II (CKII), catalytic subunit detected with CKIIα antibody (from UniProt P68400 1-391) (enzyme) |  | binds |
